# Screening data, single-dose tests

Measurements from “University of Dundee, Small-Polar-MMV Screening Library” (2021), ChEMBL document CHEMBL3988442.

Mtb cholesterol medium: 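Phenotypic screen: M. tuberculosis growth, cholesterol and DPPC medium, 4 days; the read-out is not stated. Tested at 50 µM. Higher reads as more growth inhibition (inferred: compounds with an IC50 in retests scored well above the rest). Of about 69,000 compounds tested this way, about 370 (0.54%) reached 50% or more in at least one test.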
Mtb glucose medium: 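Whole-cell growth test on Mycobacterium tuberculosis, read after 3 days in glucose-containing 7H9 medium; the read-out is not stated. Concentration: 50 µM. Higher reads as more growth inhibition (inferred: compounds with an IC50 in retests scored well above the rest). Of about 69,000 compounds tested this way, about 760 (1.1%) reached 50% or more in at least one test.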

Values are the deposited “Percent Effect”, in %. How 0% and 100% were set is not recorded. Most values in the screen are low, and negative values occur. Compounds were drawn at random from those tested, without regard to their results. Two or more numbers in one place are separate tests of the same structure; such repeats can differ widely.

Compound: CC(=O)N1CCC(NC(=O)c2cc(Cl)ccc2O)CC1
Mtb cholesterol medium: -6.46
Mtb glucose medium: -10.37

Compound: Cc1cnn(C2CCCN(C(=O)Cc3ccc(C#N)cc3)C2)c1 (centres unmarked)
Mtb cholesterol medium: 12.93
Mtb glucose medium: 18.06

Compound: O=C(NCc1csc(Br)c1)c1ccncc1
Mtb cholesterol medium: -4.307
Mtb glucose medium: 44.77

Compound: CS(=O)(=O)NCC(=O)NCc1cccnc1-n1cnc2ccccc21
Mtb cholesterol medium: -48.06
Mtb glucose medium: -27.99

Compound: CN(CCCOc1ccccc1)C(=O)CN1CCc2cncnc2C1
Mtb cholesterol medium: -14.2
Mtb glucose medium: 14.99

Compound: CC(Cc1cccc(Cl)c1)NC(=O)Nc1cnn(CC(N)=O)c1 (centres unmarked)
Mtb cholesterol medium: -8.622
Mtb glucose medium: -29.14

Compound: Cc1cc2cc(CNC(=O)c3cnn4c3OCCC4)ccc2[nH]1
Mtb cholesterol medium: -1.916
Mtb glucose medium: 2.044 and 0.1554

Compound: CN(C)C(=O)CN1C(=O)CCC12CCN(Cc1cccn1C)CC2.O=C(O)C(F)(F)F
Mtb cholesterol medium: -6.863
Mtb glucose medium: -21.98

Compound: CCc1cn[nH]c1C1CCCN(C(=O)c2cc(C#N)c(=O)[nH]c2C)C1 (centres unmarked)
Mtb cholesterol medium: -2.201
Mtb glucose medium: -6.723

Compound: Cc1c(C(=O)N2CCCN(S(C)(=O)=O)CC2)cnn1C
Mtb cholesterol medium: 5.476
Mtb glucose medium: 2.303

Compound: CC1CCN(C(=O)CSCc2noc(C(C)C)n2)CC1
Mtb cholesterol medium: 11.95
Mtb glucose medium: 33.49

Compound: CCCN1CCC(CC(=O)N2CC(C)(C)[C@@](C)(O)C2)CC1
Mtb cholesterol medium: -3.841 and -10.14
Mtb glucose medium: 40.27

Compound: Cc1nccn1CC1CCCN1S(=O)(=O)Cc1ccc(F)cc1 (centres unmarked)
Mtb cholesterol medium: 27.06
Mtb glucose medium: 7.736

Compound: Cn1ccc(C(=O)NC2CCC23CCN(C(=O)C2CCOCC2)CC3)c1 (centres unmarked)
Mtb cholesterol medium: -3.027
Mtb glucose medium: 14.34

Compound: Cc1nc(CN2CCC2(CCCc2ccccn2)C(=O)N(C)C)co1 (centres unmarked)
Mtb cholesterol medium: -9.998
Mtb glucose medium: -0.1416

Compound: O=C(c1ccc(O)cn1)N1CCOC(c2ccc(Cl)c(Cl)c2)C1 (centres unmarked)
Mtb cholesterol medium: 11.16
Mtb glucose medium: 29.44

Compound: CN(Cc1ccco1)C(=O)c1ccc(=O)n(C)c1
Mtb cholesterol medium: -0.3888
Mtb glucose medium: 4.335

Compound: O=C(O)C(F)(F)F.[H][C@@]12COC[C@]1(C(=O)NC1CC(F)(F)C1)CN(Cc1scnc1C)C2
Mtb cholesterol medium: -18.22
Mtb glucose medium: -8.445

Compound: Cc1cc(C)n(C2CN(c3nc(-c4ccncc4)nc4c3CCC4)C2)n1
Mtb cholesterol medium: -12.47
Mtb glucose medium: -26.73 and -1.705

Compound: COc1cc(CCC(=O)N2CCC(c3cc4ncccc4[nH]3)CC2)on1
Mtb cholesterol medium: 5.142 and -17.75
Mtb glucose medium: -32.63

Compound: Cc1ccccc1NS(=O)(=O)c1ccc(C(=O)O)cc1F
Mtb cholesterol medium: -8.06
Mtb glucose medium: -13.69

Compound: CCc1ncc2c(n1)CN(Cc1cccc3c1OCCO3)CC2
Mtb cholesterol medium: -29.71
Mtb glucose medium: -9.632

Compound: Cc1ccc(-c2cc(-c3nc(CN4CCN(C)CC4)no3)n[nH]2)cc1
Mtb cholesterol medium: -7.091
Mtb glucose medium: 17.49

Compound: [H][C@@]12CCN(Cc3cccc(C)n3)CC[C@]1([H])[C@@H](COC)CNC2=O
Mtb cholesterol medium: -6.257
Mtb glucose medium: 9.392 and -4.183

Compound: Cc1nc(C)c(C(=O)NCCNc2ncccn2)s1
Mtb cholesterol medium: -13.58
Mtb glucose medium: 23.93

Compound: COCC(=O)NC1CC2(CCN(CCN(C)C)CC2)c2ccccc21 (centres unmarked)
Mtb cholesterol medium: -2.104
Mtb glucose medium: 2.252

Compound: O=C(O)[C@@H]1CN(C(=O)CCCc2ccc(F)cc2)C[C@H]1C1CC1
Mtb cholesterol medium: -1.567
Mtb glucose medium: 18.5

Compound: O=C(O)C(F)(F)F.O=C(O)C(F)(F)F.[H][C@@]12C[C@H](C(=O)NCC3CC3)N(C)[C@]1([H])CN(Cc1ccsc1)C2
Mtb cholesterol medium: 5.483 and -6.982
Mtb glucose medium: -24.07

Compound: COc1cc(N2CC[C@@H](OC)[C@@H]2Cc2cnn(C)c2)ncn1
Mtb cholesterol medium: -11.34 and -5.327
Mtb glucose medium: 3.415

Compound: O=C(C1=COCCO1)N1CC(Oc2nc3c(C(F)(F)F)cccc3s2)C1
Mtb cholesterol medium: 1.75
Mtb glucose medium: 6.705 and 8.224

Compound: CN(C)C(=O)CNC(=O)c1ccn(-c2ccc3ccccn23)n1
Mtb cholesterol medium: -5.276
Mtb glucose medium: -11.22

Compound: CCCNC(=O)c1nc2c(o1)CN(C(C)=O)C2
Mtb cholesterol medium: 1.148
Mtb glucose medium: 7.478

Compound: CS(=O)(=O)N[C@@H]1CCN(Cc2cccnc2)[C@H]1Cc1ccccc1.O=C(O)C(F)(F)F.O=C(O)C(F)(F)F
Mtb cholesterol medium: -9.406
Mtb glucose medium: 9.238

Compound: COC(=O)c1ccc(C2SCC(=O)Nc3c2cnn3C2CCCC2)cc1 (centres unmarked)
Mtb cholesterol medium: -1.181
Mtb glucose medium: 32.88

Compound: COc1cc(C(F)(F)F)sc1C(=O)O
Mtb cholesterol medium: -18
Mtb glucose medium: 26.93

Compound: Cc1nc(N)cc(C2CN(C(=O)c3cscn3)CCO2)n1 (centres unmarked)
Mtb cholesterol medium: -0.476
Mtb glucose medium: 13.5

Compound: Clc1cncc(NCc2cccc(OCCN3CCOCC3)c2)n1
Mtb cholesterol medium: 14.49
Mtb glucose medium: 33.72

Compound: CCN1CC2(CC1=O)CN(C(C)=O)CCN(S(C)(=O)=O)C2 (centres unmarked)
Mtb cholesterol medium: 11.59
Mtb glucose medium: -13.86 and -1.962

Compound: Cc1cnc(C(=O)N2CCCN(Cc3csc(C)n3)CC2)cn1
Mtb cholesterol medium: -5.094
Mtb glucose medium: -0.9416

Compound: O=C(CCn1cncn1)NCC1CCCC1
Mtb cholesterol medium: 7.06
Mtb glucose medium: -22.54

Compound: Cc1ncsc1C(=O)NCCNc1ncccc1C#N
Mtb cholesterol medium: -31.47
Mtb glucose medium: 17.83

Repeated from the top, 3 entries:

{"compound": "CC(=O)N1CCC(NC(=O)c2cc(Cl)ccc2O)CC1", "Mtb cholesterol medium": -6.46, "Mtb glucose medium": -10.37}
{"compound": "Cc1cnn(C2CCCN(C(=O)Cc3ccc(C#N)cc3)C2)c1", "stereo": "centres unmarked", "Mtb cholesterol medium": 12.93, "Mtb glucose medium": 18.06}
{"compound": "O=C(NCc1csc(Br)c1)c1ccncc1", "Mtb cholesterol medium": -4.307, "Mtb glucose medium": 44.77}